As a reminder, the AC50 is the concentration at which the activity in the assay is half-maximal. A lower AC50 goes with activity at low concentration.

Some of the results follow. These are further read-outs of the screen, such as a control signal, another cell line or another target. No call is given for them. Most of these compounds were active or inconclusive in the main read-out, so they are no random draw. The note in brackets gives the kind of curve behind each potency; many fits are weak.

A short description of the assay: qHTS Assay for Lipid Storage Modulators in Drosophila S3 Cells.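 As to cell number change: cells counted by Cell Tracker Red CMTPX staining in the red channel.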 To be noted: BODIPY lipid droplet fluorescence, 18-24 h; for cell number change: measured here: cell count max response, cells fed with added oleic acid. Put shortly:
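Drosophila S3 cells got compounds at several concentrations plus oleic acid (400 uM solution). Laser-scanning cytometry with 488 nm excitation read lipid droplets at 500-530 nm and cells at 575-640 nm. Percent activity was relative to 20 uM Triacsin C.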
A general note: Quantitative high-throughput screening tests each substance at several concentrations.

The mark [1] stands for this setting: measured here: lipid fluorescence (Fed channel) AC50, cells fed with added oleic acid.
Setting [2] is: measured here: cell number channel AC50, cells fed with added oleic acid.

For `O=C(CN1CCN(S(=O)(=O)c2cccc(Cl)c2)CC1)NCC1(N2CCOCC2)CCCCC1`, the cell number change is -11.3%. For the same compound, the AC50 under setting [1] is 1.16 µM [falling, partial curve, poor fit].

Turning to `Cc1cc(NC(=O)c2ccc(F)cc2)n(-c2ccccc2)n1`, the cell number change is -9.72%. For the same compound, the AC50 under setting [1] is 29.1 µM [rising, single point].

`O=C(CSc1nc2ccccc2[nH]1)Nc1nc(-c2cccc(Br)c2)cs1`: the cell number change was -50.6%. Besides, the AC50 under setting [2] is 20.6 µM [falling, single point]. In addition, the AC50 under setting [1] is 20.6 µM [falling, single point].

Turning to `OCCN1CCN(c2cc(C(F)(F)F)nc3ccccc23)CC1`, the cell number change was -2.27%. For the same compound, the half-maximal activity concentration (AC50) under setting [1] was 2.91 µM [rising, single point].

Consider `Cc1cc(C)cc(NC(=O)COC(=O)CNC(=O)C2CCCCC2)c1`, for which the cell number change was -12.6%. For the same compound, under setting [2], the AC50 is 0.0731 µM [falling, full curve, poor fit]. Also, under setting [1], the AC50 is 0.651 µM [falling, full curve].

Regarding `COc1ccc(CC(=O)Nc2nc(-c3cccc([N+](=O)[O-])c3)cs2)cc1`, the cell number change is -28.2%.

As to `O=C(Nc1ccccc1F)N(CCCN1CCOCC1)Cc1cc2cc3c(cc2[nH]c1=O)OCCO3`, the cell number change amounted to 44.2%. For the same compound, under setting [2], the AC50 is 18.4 µM [rising, single point]. For the same compound, under setting [1], the concentration at half-maximal activity (AC50) is 29.1 µM [rising, single point].

On to `COc1ccc(-n2c(SCC(=O)N(C)c3ccccc3)nc3c([nH]c4ccccc43)c2=O)cc1OC`, for which the cell number change was found to be 22.6%. Also, the half-maximal activity concentration (AC50) under setting [1] was 7.31 µM [rising, full curve, poor fit].

Take `COc1cccc(C(=O)NCc2ccc3c(c2)OCO3)c1OC`: the cell number change came out at 5.22%. Besides, the concentration at half-maximal activity (AC50) under setting [1] is 18.4 µM [rising, single point].

On to `O=C(Cc1cccc(NC(=O)C2CCN(C(=O)C3CCC3)CC2)c1)Nc1cccc(C(=O)N2CCCC2)c1`, for which the cell number change is -4.09%. For the same compound, under setting [2], the concentration at half-maximal activity (AC50) is 0.00517 µM [falling, full curve, poor fit]. The AC50 under setting [1] was 6.51 µM [falling, single point].

Consider `COc1cccc(OCCCCSc2ncccn2)c1`, for which the cell number change came to 26.1%.

For the compound `Cc1cccc(C(=O)Nc2ccnc(-c3ccncc3)n2)c1`, the cell number change was -22.6%.

Consider `Cc1ccc2c(c1)cc1c(=O)n(CC(=O)NCCN3CCCC3)nc(C)n12`, for which the cell number change is -16.2%.

For the compound `O=C(NCCCNC(=O)c1ccc(Cl)cc1Cl)c1ccccn1`, the cell number change is 12.4%. For the same compound, the AC50 under setting [1] is 6.51 µM [falling, single point].

With `CN(Cc1nnc(SCC(=O)NCCc2ccccc2)n1C)S(=O)(=O)c1ccccc1`, the cell number change is -51.6%. The AC50 under setting [2] is 20.6 µM [falling, partial curve]. Also, under setting [1], the AC50 was 3.66 µM [falling, partial curve, poor fit].

Consider `Nc1nnc(CCS(=O)(=O)c2cc(Cl)ccc2Cl)s1`, for which the cell number change is 50.5%. Also, the AC50 under setting [2] is 29.1 µM [rising, single point].

Consider `O=C(COC(=O)C1CC1)Nc1ccc(Cl)cn1`, for which the cell number change was 27.1%. The AC50 under setting [1] was 7.31 µM [rising, partial curve, poor fit].

Take `O=C(CNC(=O)c1ccccn1)N=Nc1c(O)[nH]c2ccccc12`: the cell number change was -41.9%. Also, the concentration at half-maximal activity (AC50) under setting [2] was 2.59 µM [falling, partial curve, poor fit].

For `COc1ccc(C(=O)Nc2cccc(-c3nnc(-c4ccco4)o3)c2)cc1`, the cell number change was -28.3%. Moreover, under setting [1], the AC50 is 6.51 µM [rising, single point].

`CCn1cc([N+](=O)[O-])c(C(=O)N2N=C(c3cccc4ccccc34)CC2c2ccccc2O)n1` (centres undefined): the cell number change was -71%. In addition, the AC50 under setting [2] is 16.4 µM [falling, partial curve]. For the same compound, under setting [1], the concentration at half-maximal activity (AC50) was 25.9 µM [falling, single point].

Turning to `Cc1cc(C)c(C#N)c(=N)o1`, the cell number change is -4.78%.

For `CCn1c2ccccc2c2nnc(SCC(=O)Nc3ccc4c(c3)OCO4)nc21`, the cell number change was -6.21%. Further, the AC50 under setting [1] is 0.184 µM [rising, full curve, poor fit].

`O=C(CN1C(=O)c2ccccc2C1=O)Nc1nccs1`: the cell number change was -14.3%. Further, the concentration at half-maximal activity (AC50) under setting [2] was 0.146 µM [falling, full curve]. Moreover, the AC50 under setting [1] is 0.13 µM [falling, full curve].

For `COc1ccc(Cl)cc1C(=O)NCCN(C)C`, the cell number change is -77.1%. Also, the AC50 under setting [2] is 32.6 µM [falling, partial curve]. Moreover, the AC50 under setting [1] was 0.092 µM [falling, full curve, poor fit].

For `O=C(CCCSc1nnc(Nc2ccccc2F)s1)N1CCOCC1`, the cell number change is 27%. Also, under setting [2], the AC50 was 6.51 µM [falling, partial curve, poor fit].

Regarding `O=S(=O)(c1ccccc1)N1N=C(c2ccccc2)CC1c1ccccc1` (centres undefined), the cell number change was -2.18%.

Take `CSc1ccc(S(=O)(=O)NCC(=O)OCC(=O)N(C)CC(=O)Nc2ccccc2Cl)cc1[N+](=O)[O-]`: the cell number change is -50%. For the same compound, the AC50 under setting [2] was 29.1 µM [falling, single point]. Further, the AC50 under setting [1] was 2.91 µM [falling, full curve].

As to `Cc1cc(SCC(=O)c2ccccc2)nc(C)n1`, the cell number change was 33.9%. For the same compound, under setting [2], the AC50 was 29.1 µM [rising, single point]. The AC50 under setting [1] is 29.1 µM [rising, single point].

As for `CSCCC(NC(=O)c1ccccc1C)C(=O)O` (centres undefined), the cell number change is -0.135%. Further, the AC50 under setting [1] is 6.51 µM [rising, partial curve, poor fit].

With `Cc1ccc(NS(=O)(=O)c2c(C)[nH]c(C)c2C(=O)N2CCCCC2)c(Br)c1`, the cell number change is -11.2%. Moreover, the AC50 under setting [1] is 29.1 µM [falling, single point].

As for `O=C(c1cccc(C(F)(F)F)c1)N1CCCC1`, the cell number change is -171%. For the same compound, under setting [2], the AC50 was 23.1 µM [falling, partial curve]. The AC50 under setting [1] is 18.4 µM [falling, partial curve].

For `COc1ccccc1C(=O)N/C(N)=N/c1nc2ccccc2o1`, the cell number change is -24.1%. The half-maximal activity concentration (AC50) under setting [1] is 0.206 µM [falling, full curve, poor fit].

Take `CCCCC(CC)C(=O)NCCc1ccc(S(N)(=O)=O)cc1` (centres undefined): the half-maximal activity concentration (AC50) runs as follows: under setting [2], 0.058 µM [rising, partial curve]; under setting [1], 0.116 µM [falling, full curve, poor fit].

`Clc1cccc(CSc2nnc(-c3c[nH]c4ccccc34)o2)c1`: the cell number change was -82.9%. Besides, the concentration at half-maximal activity (AC50) under setting [2] was 4.61 µM [falling, partial curve]. For the same compound, under setting [1], the concentration at half-maximal activity (AC50) is 2.31 µM [rising, partial curve].

Turning to `COC(=O)C1(C)NC(c2ccc(O)cc2)C2C(=O)N(c3ccc(F)cc3)C(=O)C21` (centres undefined), the cell number change is 15.7%. Besides, the AC50 under setting [1] was 29.1 µM [rising, single point].

For the compound `COc1ccc(S(=O)(=O)N2CCOCC2)cc1NC(=O)CCNC(=O)c1ccc(Cl)cc1`, the cell number change was 78%. In addition, under setting [2], the AC50 is 9.2 µM [rising, partial curve].

On to `CCC(C(=O)NCc1ccccc1OC)n1nc(C)n2c(cc3occc32)c1=O` (centres undefined), for which the AC50 under setting [2] is 0.13 µM [falling, full curve, poor fit].

Take `O=C(Cc1cccs1)NNC(=S)NCc1ccc(Cl)cc1`: the cell number change is -13.7%.

Consider `Cc1ccccc1OCC(O)CN1CCN(c2ccc(Cl)cc2)CC1` (centres undefined), for which the cell number change was -46.7%. Moreover, the half-maximal activity concentration (AC50) under setting [2] is 32.6 µM [falling, single point]. The AC50 under setting [1] is 29.1 µM [falling, single point].

As for `CN1CCC(NC(=O)Cc2c(F)cccc2Cl)CC1`, the cell number change was determined as 13.5%. In addition, the AC50 under setting [1] is 2.59 µM [rising, partial curve, poor fit].

Take `CC(NC(=O)CSc1nnc2n1CCCCC2)c1ccccc1Cl` (centres undefined): the cell number change is 0.774%.

For the compound `Cc1ccc(NC(=O)C2C3CCCC2C3c2ccccc2)c(C)c1` (centres undefined), the cell number change is 3.69%. The concentration at half-maximal activity (AC50) under setting [1] is 6.51 µM [falling, single point].

As for `Cc1ccccc1CN(C)c1ccc(S(=O)(=O)N2CCN(C)CC2)cn1`, the cell number change worked out at 0.258%. Besides, the AC50 under setting [1] is 2.31 µM [falling, partial curve, poor fit].

With `COc1ccc(-c2oc3cccnc3c2-c2ccc(OC)nc2)cc1`, the cell number change was found to be 2.27%. The concentration at half-maximal activity (AC50) under setting [1] was 29.1 µM [rising, single point].

With `CC1CC(C)(C)CC2(C1)NC(=O)N(CC(=O)Nc1c(F)cccc1F)C2=O` (centres undefined), the cell number change is -4.1%. Moreover, under setting [1], the AC50 was 29.1 µM [rising, single point].

Turning to `COc1ccc(/C=N/NC(=O)c2ccc(-n3cnnn3)cc2)cc1`, the cell number change was -42%. Under setting [2], the AC50 was 32.6 µM [falling, single point].

In the case of `CC1CCc2sc3nc(NCc4ccco4)n4ncnc4c3c2C1` (centres undefined), the cell number change is -11.6%. In addition, the AC50 under setting [2] was 7.31 µM [falling, single point]. In addition, the AC50 under setting [1] is 0.58 µM [rising, single point].

Regarding `COC(=O)c1cc(COc2ccc3c(c2)oc(=O)c2ccccc23)c(C)o1`, the cell number change came to 2.82%. The AC50 under setting [2] was 0.517 µM [rising, partial curve, poor fit].

With `CCc1cc2ccc(C)cc2nc1SCC(=O)NNC(=O)c1ccco1`, the cell number change turned out to be 8.48%. The concentration at half-maximal activity (AC50) under setting [2] is 0.092 µM [falling, full curve, poor fit]. Under setting [1], the AC50 was 0.116 µM [falling, full curve].

Consider `O=C(NC1CCCCCC1)C1CCN(c2nc3ccccc3o2)CC1`, for which the cell number change stood at 30%.

As to `O=C(Nc1cccc([N+](=O)[O-])c1)C1C2/C=C\CCCCC21` (centres undefined), the cell number change is -16.5%. Under setting [2], the concentration at half-maximal activity (AC50) was 6.51 µM [falling, single point].

Consider `COc1ccc(-c2cc(C(=O)NC3=NCCS3)c3ccccc3n2)cc1OC`, for which the concentration at half-maximal activity (AC50) was 0.231 µM [rising, full curve] under setting [2] and 0.184 µM [rising, full curve] under setting [1].

Regarding `CCC1CN(C(=O)N2CCC(C(=O)Nc3ccccc3OC)CC2)c2ccccc2O1` (centres undefined), the cell number change was -11.8%. Besides, the AC50 under setting [1] is 0.411 µM [falling, partial curve, poor fit].

As to `Cc1cc(C(=O)N/N=C/C=C/c2cccc([N+](=O)[O-])c2)n[nH]1`, the cell number change came out at 19.4%. Also, the concentration at half-maximal activity (AC50) under setting [2] was 0.82 µM [rising, full curve, poor fit].

Regarding `COC(=O)c1cccc(S(=O)(=O)N(Cc2ccco2)Cc2cc3cc(OC)ccc3[nH]c2=O)c1`, the cell number change is -16.7%.

For `CC1(C)COC(c2coc3ccccc3c2=O)OC1`, the cell number change was determined as 15.9%. Further, the AC50 under setting [2] is 6.51 µM [rising, single point]. For the same compound, under setting [1], the half-maximal activity concentration (AC50) is 6.51 µM [rising, single point].

`CCOc1ccc(C(=O)NC(=S)Nc2ncccc2C)cc1[N+](=O)[O-]`: the cell number change was -2.84%. Moreover, the AC50 under setting [1] was 29.1 µM [rising, single point].

Values taken from PubChem BioAssay AID2685 (National Center for Advancing Translational Sciences (NCATS), 2010).
